Measurements published in patent US10718770B2, “Methods for screening compounds for treating or preventing a viral infection or a virus-related condition” (ABIVAX, priority 2015, dated 2020).
Entries after “also recorded” stand apart in the source; their conditions may differ. At least one compound was matched to its structure with a doubt left.

What was measured:
[1] = biological target: T1, CBC complex (CBP20 and CBP80) (Homo sapiens, UniProt P52298+Q09161); experiment: UV crosslinking of purified recombinant CBP20 and CBP80 (CBC complex), SDS-PAGE / Western blot; type: binding; settings: purified recombinant CBP20 and CBP80, after UV irradiation
T1 construct: made in house
T1 sequence (P52298 1-156): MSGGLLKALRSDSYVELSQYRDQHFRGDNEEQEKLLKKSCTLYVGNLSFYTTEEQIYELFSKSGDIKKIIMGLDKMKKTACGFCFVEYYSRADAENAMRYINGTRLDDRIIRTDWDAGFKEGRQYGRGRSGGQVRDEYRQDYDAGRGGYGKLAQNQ
T1 sequence (Q09161 1-790): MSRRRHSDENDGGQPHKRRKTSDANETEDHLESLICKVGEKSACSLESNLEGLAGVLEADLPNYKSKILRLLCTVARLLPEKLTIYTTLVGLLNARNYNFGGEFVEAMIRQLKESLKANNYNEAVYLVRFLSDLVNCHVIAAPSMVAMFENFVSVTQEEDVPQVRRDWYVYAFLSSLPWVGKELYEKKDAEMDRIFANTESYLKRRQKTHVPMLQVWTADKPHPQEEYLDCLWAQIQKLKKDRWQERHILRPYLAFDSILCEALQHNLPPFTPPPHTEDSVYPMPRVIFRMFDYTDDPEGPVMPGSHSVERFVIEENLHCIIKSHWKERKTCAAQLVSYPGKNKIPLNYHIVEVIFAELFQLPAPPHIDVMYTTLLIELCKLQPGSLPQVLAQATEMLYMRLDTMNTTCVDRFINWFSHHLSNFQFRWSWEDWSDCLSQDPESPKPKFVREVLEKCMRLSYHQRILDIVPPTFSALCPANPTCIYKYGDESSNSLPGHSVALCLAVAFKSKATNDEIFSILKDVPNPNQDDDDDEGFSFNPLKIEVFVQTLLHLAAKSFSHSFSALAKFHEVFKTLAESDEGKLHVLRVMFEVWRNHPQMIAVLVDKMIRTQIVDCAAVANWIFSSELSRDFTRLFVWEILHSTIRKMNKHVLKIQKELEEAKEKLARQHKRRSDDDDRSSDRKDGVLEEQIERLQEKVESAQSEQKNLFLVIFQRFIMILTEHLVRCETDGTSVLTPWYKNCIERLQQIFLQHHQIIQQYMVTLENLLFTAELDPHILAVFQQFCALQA
Procedure: FIG. 2. Compound 1 interacts with the CBC complex. Purified recombinant CBP20 and CBP80 proteins were incubated with increasing concentrations of Compound 1 (left panel) or Compound 1-N-glucuronide (right panel, Gluc) and treated for 30 minutes with UV light. […] Left panel: from left to right, incubation with 0.1 (lane 1), 1 (lane 2), 10 (lane 3) and 50 μM (lane 4) of Compound 1. Right panel: from left to right, incubation with 1 (lane 1), 10 (lane 2), 50 (lane 3), 100 μM (lane 4) and 200 μM (lane 5) of Compound 1-N-glucuronide.
FIG. 3. Compound 1 promotes the interaction of CBP20 with CBP80. A) Purified recombinant CBP20 and CBP80 proteins were incubated with the indicated concentrations of Compound 1-N-glucuronide and they were either untreated (lanes 1-3), treated during 15 min (lanes 4-6) or 30 min (lanes 7-9) with UV light. Proteins were analyzed by SDS-PAGE and stained with Coomassie blue. […] B) Recombinant human CBC was incubated with Compound 1-N-glucuronide and treated with UV for 15 min. After crosslinking the proteins were resolved in SDS-PAGE and stained with Coomassie blue (left panel). Stained proteins (Band 4, Band 5 and Band 7) were digested with trypsin and analysed by mass spectrometry. […]

Recombinant human CBC = biological target: T2, Recombinant human CBC (Homo sapiens, UniProt P52298+Q09161); experiment: Gel-mobility shift assay: binding of capped RNA to the CBC complex; settings: native gel; Compound 1 5-50 μM, Compound 1-N-glucuronide 5-100 μM, m7GpppG 12 mM
T2 construct: made in house
T2 sequence (P52298 1-156): T1 sequence (P52298 1-156)
T2 sequence (Q09161 1-790): T1 sequence (Q09161 1-790)
Procedure: FIG. 4. […] Recombinant human CBC was incubated with a capped RNA substrate and analyzed by native gel electrophoresis in order to resolve the different RNA and RNA-protein complexes: free RNA (lane 1), and CBC-RNA complexes (lanes 2-10) in the presence of 12 mM of m7GppG (lanes 10) or 5 μM, 10 μM or 50 μM of Compound 1 (lanes 2-4, respectively) or 5 μM, 10 μM, 50 μM or 100 μM of Compound 1-N-glucuronide ([…], respectively).
Gel-mobility shift assay in the presence of a m(7)GpppG cap analogue has been established according to the protocol described in Mazza et al. (Large-scale induced fit recognition of an m(7)GpppG cap analogue by the human nuclear cap-binding complex. EMBO J. 21, 5548-5557 (2002)).
Recombinant human CBC was incubated with a capped RNA substrate and analyzed by native gel electrophoresis in order to resolve the different RNA and RNA-protein complexes according to Mazza et al. (Large-scale induced fit recognition of an m(7)GpppG cap analogue by the human nuclear cap-binding complex. EMBO J. 21, 5548-5557 (2002).

JRCSF HIV-1 strain = experiment: Reconstituted SCID mice infected with JRCSF HIV-1 strain; type: in vivo, mouse (SCID, reconstituted with human PBL); settings: 15 days
YU2 HIV-1 virus = experiment: Humanized mice infected with YU2 HIV-1 virus, viral load; type: in vivo, mouse (NSG humanized); settings: 40 mg/kg daily, 30 days
Procedure: FIG. 7. Efficacy of Compound 1 to inhibit viral replication in humanized mice. A) Reconstituted SCID mice were infected with JRCSF HIV-1 strain by intraperitoneal injection. Control group received by gavage labrafil and 5% DMSO (n=15) and treated group 20 mg/kg b.i.d of Compound 1 in labrafil and 5% DMSO (n=14) for 15 days. Two independent experiments were performed with 5 and 10 reconstituted mice for each group. Viral load was assessed by measuring viral RNA using the Amplicor HIV-1 Monitor from Roche. B) FACS analysis was performed on peritoneal wash at day 15 post-treatment to assess the CD8/CD4 ratio. C) Engrafted NSG humanized mice were treated by oral gavage with Compound 1 at either 20 mg or 40 mg/kg once a day for 30 days and indicated lymphocyte populations (CD45+; CD4+ and CD8+) were monitored by FACS analysis. […] Viral load was assessed by measuring viral RNA using the Amplicor HIV-1 Monitor from Roche. […]
Briefly, newborn (<5 days old) NSG mice received sub-lethal (1 Gy) total body irradiation with a Cs source, and then received […] transduced or untransduced CD34+ human HSCs using a 50 μl Hamilton syringe via the intrahepatic (i.h.) route. […] Mice were monitored three times a week for symptoms or signs of adverse events, according to a standard score sheet. […]

FC(F)(F)Oc1ccc(Nc2ccc3cccc(Cl)c3n2)cc1 [Compound 1, 8-chloro-N-(4-(trifluoromethoxy)phenyl)quinolin-2-amine]
covalent bridging (UV crosslinking) between CBP20 and CBP80 [1]: promote UV crosslinking of CBP20 and CBP80; also recorded: induce dose-dependent covalent bridging between CBP20 and CBP80
competition for binding of capped RNA to the CBC complex (Recombinant human CBC): no competition was observed
CD4+ cells following infection (JRCSF HIV-1 strain; 20 mg/kg twice a day, FACS): prevents depletion of CD4+ cells
CD8+/CD4+ ratio (JRCSF HIV-1 strain; 20 mg/kg twice a day, FACS): restores CD8+/CD4+ ratio back to that of non-infected mice
viral load (viral RNA) (JRCSF HIV-1 strain; oral gavage 20 mg/kg twice a day): significantly reduce the viral load
viral load during treatment (YU2 HIV-1 virus): reduced the viral load
